Experimental data: PubChem BioAssay AID504764 (Drosophila RNAi Screening Center, 2011)

Assay: 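Knock-downs that raise or lower a Notch target reporter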 (primary screen)
Cell system: Drosophila Kc167 cells
Knock-down reagent: long dsRNA against Drosophila genes
Duration: about 5 days (4 days dsRNA, then 24 h after transfection)
Challenge: transfection of constitutively active membrane-tethered Notch lacking the extracellular domain, read 24 h later
Measurement: 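Light from a Notch-responsive E(spl)m3 luciferase reporter under active Notch, with control-promoter and no-Notch reporter wells to normalise; raw counts from paired wells a and b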
Scale: induced reporter light, run 1, well a and induced reporter light, run 1, well b: higher = more light from the Notch target reporter with active Notch; control promoter light, run 1, well a and control promoter light, run 1, well b: higher = more light from the viral control promoter (cell number, transfection, viability); uninduced reporter light, run 1, well a: higher = more light from the Notch target reporter without active Notch
Call rule: 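Hit if the duplicate-averaged log2 ratio of induced to control-promoter light gives a plate-wise z beyond ±2, or induced to uninduced beyond ±1.8; weak-control or discordant-duplicate wells dropped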
Calls: active = modifier hit (raised or lowered Notch signal); inactive = not a hit
The screen tested about 22,000 reagents; shown is an unselected part of those that have a named target and a result. In the full data, 403 (1.9%) were called active. 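Unnormalised raw counts per well; ratio z-scores behind the hit calls and whether each hit raises or lowers signal are not deposited.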 Names joined by + are all predicted targets of the reagent. The record does not give: the amount of reagent.

Target gene	dsRNA	induced reporter light, run 1, well a	induced reporter light, run 1, well b	control promoter light, run 1, well a	control promoter light, run 1, well b	uninduced reporter light, run 1, well a	call
brwl	DRSC01080	6915	5165	6200	5628	4210	inactive
brwl	DRSC02729	2.22e5	1.92e5	1.77e5	1.81e5	17040	inactive
CG43867	DRSC17582	66465	68425	74535	81575	6135	inactive
CG43867	DRSC17836	1.46e5	1.21e5	2.14e5	2.27e5	8820	inactive
CG43867	DRSC17837	1.19e5	1.43e5	3.09e5	3.53e5	11090	active
CG43867	DRSC17943	1.33e5	1.37e5	2.42e5	2.15e5	8330	inactive
l(3)neo38	DRSC14946	61235	79110	63195	50935	3725	inactive
l(3)neo38	DRSC16138	67840	64295	54150	43065	2465	inactive
CG15617	DRSC06570	1.69e5	85610	1.12e5	1.62e5	14690	inactive
ebo	DRSC18787	49450	59715	53800	66620	3570	inactive
CG31253 + CG31131	DRSC13839	1.71e5	1.78e5	1.98e5	2.31e5	16080	inactive
CG11600	DRSC14332	11330	6505	9265	6242	2740	inactive
dar1	DRSC08049	2.60e5	2.35e5	2.19e5	2.30e5	17790	inactive
dar1	DRSC08233	1.03e5	1.18e5	2.21e5	1.38e5	6930	inactive
CG31869	DRSC02582	1.07e5	1.06e5	59380	70565	13800	inactive
CG31869	DRSC02674	93880	1.36e5	50840	69925	14865	inactive
CG15096	DRSC06525	1.30e5	1.12e5	1.98e5	2.67e5	9280	inactive
inaF-C	DRSC18902	87920	65560	96010	73105	6015	inactive
twf	DRSC15466	1.58e5	1.65e5	1.20e5	99240	10715	inactive
Gp210	DRSC04861	1.89e5	1.40e5	1.54e5	1.24e5	11020	inactive
Gp210	DRSC04900	1.59e5	1.58e5	1.54e5	1.45e5	12665	inactive
CG16985	DRSC08501	88165	97785	1.39e5	1.27e5	5935	inactive

Entries listed above with an active call (1):
Target gene	dsRNA	induced reporter light, run 1, well a	induced reporter light, run 1, well b	control promoter light, run 1, well a	control promoter light, run 1, well b	uninduced reporter light, run 1, well a	call
CG43867	DRSC17837	1.19e5	1.43e5	3.09e5	3.53e5	11090	active

The listing continues:
Target gene	dsRNA	induced reporter light, run 1, well a	induced reporter light, run 1, well b	control promoter light, run 1, well a	control promoter light, run 1, well b	uninduced reporter light, run 1, well a	call
CG10274	DRSC09716	1.43e5	1.04e5	81225	24940	10605	inactive
CG15005	DRSC08459	1.07e5	1.21e5	1.83e5	1.45e5	7005	inactive
CG6583	DRSC02972	1.61e5	1.59e5	1.74e5	1.69e5	14095	inactive
CG13984	DRSC02316	1.96e5	1.82e5	2.35e5	2.10e5	12855	inactive
CG15233	DRSC04967	1.58e5	1.63e5	1.91e5	1.61e5	13900	inactive
Asator	DRSC17136	1.16e5	1.01e5	1.72e5	1.81e5	8835	inactive
Ggt-1	DRSC19993	93260	1.04e5	94925	57205	8560	inactive
CG17486	DRSC07752	91730	72070	1.43e5	1.47e5	6575	inactive
prom	DRSC04684	1.42e5	1.45e5	1.59e5	1.59e5	8755	inactive
L	DRSC06666	59850	69610	92005	88140	7182	inactive
L	DRSC06668	72580	78680	1.05e5	88930	7770	inactive
RunxA	DRSC20400	85140	77715	90765	1.11e5	6710	inactive
RunxA	DRSC20498	17230	15370	7130	8475	5110	inactive
RunxA	DRSC20524	90515	1.05e5	1.46e5	1.45e5	13850	inactive
